Test results as given in PubChem BioAssay AID493014 (National Center for Advancing Translational Sciences (NCATS), 2011).
Some of the results follow. The main result of the screen is listed elsewhere. These columns were measured beside it and carry no call. Compounds called inactive in the main read-out are mostly missing here. The note in brackets gives the kind of curve behind each potency; many fits are weak.

Assay: qHTS Assay to Find Inhibitors of Chronic Active B-Cell Receptor Signaling
Conditions: ABC-DLBCL IkBa-CBG/CBR reporter, luminescence ratio (green luciferase fused to IkBa over red control in TMD8 lymphoma cells), 4 h
Outline: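 Concentration-response series (up to 46 uM) were applied to TMD8 dual-reporter cells for 4 h at 37C with doxycycline. Green/red ratio, after filter-overlap correction, defined %Activity; red signal alone was normalised to basal cells and zero luminescence.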

[1] = measured here: CBR red luminescence, cell number
[2] = measured here: IkBa-CBG green luminescence

Structure (SMILES)	AC50 [1]	AC50 [2]
COc1ccccc1NC(=O)CCn1c(=S)oc2ccccc21	2.82 µM [rising, single point]	–
CCOCCCNC(=O)c1ccc2c(c1)ncn2C1CCCC1	8.2 µM [rising, single point]	–
CC(C)N(Cc1nc(-c2ccccc2)no1)C(=O)CN(C)S(=O)(=O)c1ccccc1	6.51 µM [falling, single point]	–
CCOc1ccc(/C=N/NC(=O)c2ccc(O)cc2)cc1CN1CC2CC(C1)c1cccc(=O)n1C2 (stereo not given)	0.731 µM [falling, full curve]	–
COc1cc2c(cc1OC)C(c1ccc(OC)c(OC)c1OC)CC(=O)N2 (stereo not given)	11.2 µM [rising, partial curve, poor fit]	11.2 µM [falling, partial curve]
O=C(O)CCCn1cc(NC(=O)COc2ccccc2F)cn1	14.1 µM [rising, single point]	–
Cc1cc(C)cc(NC(=O)CCc2nc3sc4c(c3c(=O)[nH]2)CCCC4)c1	11.6 µM [rising, partial curve]	–
COc1ccc(C(=O)O/N=C(\N)c2ccccc2)c(OC)c1	1.64 µM [falling, partial curve]	25.9 µM [falling, single point]
COc1ccccc1NS(=O)(=O)c1cccc(NC(=O)CCNC(=O)c2ccccc2OC)c1	29.1 µM [falling, single point]	–
CN(C)CCCO/N=C(\c1ccccc1)c1ccncc1	0.651 µM [rising, full curve]	–
N#CC1=C(N)OC2=C(CC/C2=C\c2ccccc2Cl)C1c1ccccc1Cl (stereo not given)	29.1 µM [falling, single point]	–
Cc1ccc(Cn2nnc3c(=O)[nH]c(C4CCCN(S(=O)(=O)c5ccccc5)C4)nc32)cc1 (stereo not given)	1.16 µM [rising, partial curve, poor fit]	–
CCOc1ccc2nc(NC(=O)Nc3cccs3)sc2c1	5.8 µM [rising, full curve, poor fit]	–
O=C(O)c1cc2ccc3cccc4ccc(c1)c2c34	3.16 µM [falling, partial curve, poor fit]	–
O=C1C2=C(c3ccccc31)[N+](=O)[C@@H]1CCCC[C@@H]1N2[O-]	6.31 µM [falling, single point]	6.31 µM [rising, partial curve, poor fit]
CCOC(=O)Nc1nc(-c2ccc(Cl)cc2Cl)cs1	3.66 µM [rising, full curve, poor fit]	–
Cc1ccc(N(Cc2ccc(C(=O)NC3CCCCC3)cc2)S(C)(=O)=O)cc1C	23.1 µM [falling, single point]	–
COc1cc(C(=O)OCC(=O)N2CCC(Cc3ccccc3)CC2)cc(OC)c1OC	0.58 µM [rising, full curve, poor fit]	–
COc1ccc(C(=O)Nc2c(C)ccc3nsnc23)cc1[N+](=O)[O-]	2.31 µM [rising, full curve]	–
COc1ccc2[nH]c(C(=O)N(C)c3ccc(F)cc3F)cc2c1	0.0891 µM [rising, full curve, poor fit]	–

Random excerpt: three records from the list.
Structure (SMILES)	AC50 [1]	AC50 [2]
O=C(O)CCCn1cc(NC(=O)COc2ccccc2F)cn1	14.1 µM [rising, single point]	–
COc1ccccc1NC(=O)CCn1c(=S)oc2ccccc21	2.82 µM [rising, single point]	–
Cc1ccc(Cn2nnc3c(=O)[nH]c(C4CCCN(S(=O)(=O)c5ccccc5)C4)nc32)cc1 (stereo not given)	1.16 µM [rising, partial curve, poor fit]	–

(more compounds)

Structure (SMILES)	AC50 [1]	AC50 [2]
COc1cccc(NC(=O)C(Cc2ccccc2)NC(=O)C2CCC(C)CC2)c1 (stereo not given)	2.91 µM [falling, partial curve, poor fit]	–
CCCSc1nsc(SCCC)c1C#N	14.6 µM [rising, partial curve, poor fit]	20.6 µM [falling, single point]
COc1ccc(OC)c(NC(=O)CN2C(=O)NC(C)(c3ccc4c(c3)OCCO4)C2=O)c1 (stereo not given)	29.1 µM [rising, single point]	–
Nc1cc([N+](=O)[O-])ccc1Nc1ccc(O)cc1	14.1 µM [falling, partial curve, poor fit]	10 µM [rising, partial curve]
COc1ccc(CNS(=O)(=O)c2ccccc2Br)cc1	15.8 µM [falling, single point]	–
COc1ccc(/C=C2\CCCc3c2nc2ccccc2c3C(=O)OCC(=O)c2c(N)n(C)c(=O)n(C)c2=O)cc1	29.1 µM [falling, single point]	–
Cc1cccc(C)c1NC(=O)CNC(=O)CNC(=O)Cc1cccc2ccccc12	–	25.9 µM [falling, partial curve, poor fit]
CSc1nc(C)cc(SCC(=O)Nc2ccccc2)n1	0.366 µM [falling, full curve, poor fit]	–
CCOC(=O)N1CCN(Cc2cn[nH]c2-c2ccc(-c3ccccc3)cc2)CC1	35.5 µM [falling, single point]	–
CO/N=C\CC(=O)Nc1ccc(Oc2ccccc2)cc1	35.5 µM [rising, single point]	15.8 µM [falling, single point]
CCc1nc(Nc2cccc(OC)c2)c2oc3ccccc3c2n1	12.6 µM [falling, partial curve, poor fit]	–
Cc1ccccc1C(CC(=O)c1cccs1)C(C#N)C#N (stereo not given)	10.3 µM [falling, partial curve, poor fit]	–
Cc1cc(=O)c2cc(Cl)ccc2[nH]1	22.4 µM [falling, single point]	–
CCOC(=O)C1CCN(C(=O)c2cc3cc(F)ccc3[nH]2)CC1	3.55 µM [falling, full curve, poor fit]	–
CCCCC(=O)N1CCN(c2nc3c(C)c(C)ccc3s2)CC1	0.708 µM [rising, full curve, poor fit]	–
CC(C)(C)c1ccc(C(=O)N2CCC(=O)N(C(COCc3ccccc3)Cc3ccccc3)CC2)cc1 (stereo not given)	13 µM [falling, single point]	–
Cc1cccc(NC(=O)C(=O)N/N=C/c2ccncc2)c1	14.1 µM [falling, partial curve, poor fit]	–
CC1CCN(CC(=O)Nc2ccc(C(=O)N3CCCCC3)cc2)CC1	3.55 µM [rising, full curve, poor fit]	–
COCCNC(=O)/C(C#N)=C/C=C/c1ccccc1	12.6 µM [falling, partial curve]	–
